Results are given in words; binding and its absence hold for the method and conditions named. Some results given as binding are weak or reduced against the parent protein; the word gives no strength.
Biological target: TRIM36 PRYSPRY domain (human) (UniProt Q9NQ86)
Assay: crystal structure; sitting-drop vapor diffusion at 20 °C; isolated PRYSPRY domains, contacts between chains of the asymmetric unit; both purified

B1: TRIM36 PRYSPRY domain (domain or fragment, human)
chain: TPPAPVFSFLFDEKCGYNNEHLLLNLKRDRVESRAGFNLLLAAERIQVGYYTSLDYIIGDTGITKGKHFWAFRVEPYSYLVKVGVASSDKLQEWLRSPRDAVSPRYEQDSGHDSGSEDACFDSSQPFTLVTIGMQKFFIPKSPTSSNEPENRVLPMPTSIGIFLDCDKGKVDFYDMDQMKCLYERQVDCSHTLYPAFALMGSGGIQLEEPITAKYLEYQEDM
notes: PRYSPRY domain of human TRIM36, with an additional C-terminal helix; theoretical MW of the dimer 52.4 kDa; Cloned into pNIC-CTH0; also called TRIM36 domain
binding: binds

From article PMC12355088, “Structural analysis of TRIM family PRYSPRY domains and its implications for E3-ligand design” (Journal of Structural Biology: X, 2025)
